Measurements reported in PubChem BioAssay AID686937 (Drosophila RNAi Screening Center, 2013)

- Aim: 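Genes whose loss weakens secretory pathway function in fly cells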 (primary screen)
- System: Drosophila S2 cells expressing secreted horseradish peroxidase
- Knock-down reagent: long dsRNA against Drosophila genes
- Duration: about 5.5 days (5 days dsRNA, then 12 h reporter induction)
- Challenge: reporter expression induced after 5 days of dsRNA, read 12 h later; inducer not stated
- Read-out: 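After 5 days of dsRNA and 12 h of reporter induction, medium peroxidase read by chemiluminescence and scored as per-plate z-score; higher values mean more reporter released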
- Reading the numbers: z-score: higher = more reporter secreted into medium
The deposit covers about 23,000 reagents; shown is an unselected part of those that have a named target and a result. 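Reduced-secretion tags in replicate 1 do not always agree with the z-scores; no criterion for assigning the tags was given.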 Not all columns of the deposit are shown. Not given: the amount of reagent.

Su(z)12 [DRSC11293]: z-score, replicate 1 = 0.34
CG32971 [DRSC01372]: z-score, replicate 1 = -0.31
Gbs-76A [DRSC11081]: z-score, replicate 1 = 0.1
CG15399 [DRSC00413]: z-score, replicate 1 = 0.21
CG3942 [DRSC15525]: z-score, replicate 1 = 0.4
l(2)k09848 [DRSC04894]: z-score, replicate 1 = -0.04
CG14292 [DRSC14772]: z-score, replicate 1 = 0.47
CG15382 [DRSC00397]: z-score, replicate 1 = 0.28
CycD [DRSC20233]: z-score, replicate 1 = -0.76
Jon25Bi [DRSC03434]: z-score, replicate 1 = 0.25
Alg11 [DRSC11647]: z-score, replicate 1 = 0.05
Obsc [DRSC04301]: z-score, replicate 1 = 0.79
Obsc [DRSC04302]: z-score, replicate 1 = 0.41
Obsc [DRSC04303]: z-score, replicate 1 = 0.11
Obsc [DRSC04430]: z-score, replicate 1 = 0.1
Obsc [DRSC22422]: z-score, replicate 1 = 0.17
htk [DRSC20029]: z-score, replicate 1 = -1.64; phenotype, replicate 1 = reduced secretion
htk [DRSC20031]: z-score, replicate 1 = -1.76; phenotype, replicate 1 = reduced secretion
E(Pc) [DRSC05281]: z-score, replicate 1 = -2.74; phenotype, replicate 1 = reduced secretion
E(Pc) [DRSC07408]: z-score, replicate 1 = -4.5; phenotype, replicate 1 = reduced secretion
Cow [DRSC13601]: z-score, replicate 1 = -0.18
Cow [DRSC14680]: z-score, replicate 1 = 0.44
CG34377 [DRSC13559]: z-score, replicate 1 = 0.53
CG34377 [DRSC14708]: z-score, replicate 1 = 0.31
CG34377 [DRSC14709]: z-score, replicate 1 = 0.39
CG34377 [DRSC14710]: z-score, replicate 1 = 0.23
CG34377 [DRSC14711]: z-score, replicate 1 = 0.22

Looked up above.
Result of htk [DRSC20029] under “z-score, replicate 1”: -1.64
For “z-score, replicate 1”, Obsc [DRSC04430] shows 0.1
